In PMC5852132 one finds binding data, which are given here for 3 substances.

The chains behind the UniProt entries cited, without tags or fusion partners.
UniProt P40763: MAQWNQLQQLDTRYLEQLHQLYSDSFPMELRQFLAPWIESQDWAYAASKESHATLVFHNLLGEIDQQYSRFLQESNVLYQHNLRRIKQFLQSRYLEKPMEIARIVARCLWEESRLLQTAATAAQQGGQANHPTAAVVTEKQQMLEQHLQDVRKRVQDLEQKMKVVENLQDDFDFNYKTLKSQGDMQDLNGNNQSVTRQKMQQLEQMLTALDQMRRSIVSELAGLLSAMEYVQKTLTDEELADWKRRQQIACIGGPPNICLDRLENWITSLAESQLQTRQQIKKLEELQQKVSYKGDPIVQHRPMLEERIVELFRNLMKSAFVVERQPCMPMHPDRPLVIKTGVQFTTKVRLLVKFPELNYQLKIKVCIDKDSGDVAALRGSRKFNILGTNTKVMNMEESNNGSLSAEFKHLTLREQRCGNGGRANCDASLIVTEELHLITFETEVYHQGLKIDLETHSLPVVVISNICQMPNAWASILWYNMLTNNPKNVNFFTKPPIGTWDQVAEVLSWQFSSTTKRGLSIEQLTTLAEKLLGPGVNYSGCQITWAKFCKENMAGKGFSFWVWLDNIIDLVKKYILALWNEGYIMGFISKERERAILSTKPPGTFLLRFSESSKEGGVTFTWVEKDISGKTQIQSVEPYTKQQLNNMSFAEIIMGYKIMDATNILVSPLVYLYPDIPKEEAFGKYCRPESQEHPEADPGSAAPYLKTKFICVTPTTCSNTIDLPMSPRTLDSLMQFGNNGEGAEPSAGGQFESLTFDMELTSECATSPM
UniProt P42227: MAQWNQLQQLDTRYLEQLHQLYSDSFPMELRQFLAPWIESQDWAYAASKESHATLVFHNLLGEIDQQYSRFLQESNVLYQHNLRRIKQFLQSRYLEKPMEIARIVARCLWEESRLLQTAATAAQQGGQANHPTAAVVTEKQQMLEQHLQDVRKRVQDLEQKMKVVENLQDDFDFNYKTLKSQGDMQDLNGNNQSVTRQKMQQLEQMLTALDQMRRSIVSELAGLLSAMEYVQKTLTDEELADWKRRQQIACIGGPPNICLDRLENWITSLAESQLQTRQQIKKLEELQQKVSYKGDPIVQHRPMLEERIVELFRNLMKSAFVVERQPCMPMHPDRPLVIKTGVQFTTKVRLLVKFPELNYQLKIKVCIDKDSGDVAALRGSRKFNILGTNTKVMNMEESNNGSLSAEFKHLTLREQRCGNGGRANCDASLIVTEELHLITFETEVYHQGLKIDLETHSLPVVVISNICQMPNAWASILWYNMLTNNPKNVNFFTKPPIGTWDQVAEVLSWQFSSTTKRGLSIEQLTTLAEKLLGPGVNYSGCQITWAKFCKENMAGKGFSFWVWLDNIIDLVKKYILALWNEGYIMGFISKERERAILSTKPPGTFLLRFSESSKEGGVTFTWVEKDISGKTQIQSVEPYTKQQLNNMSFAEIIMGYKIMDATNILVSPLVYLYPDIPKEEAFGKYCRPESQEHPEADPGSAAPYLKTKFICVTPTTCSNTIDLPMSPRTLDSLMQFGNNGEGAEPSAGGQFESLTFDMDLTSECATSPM
UniProt Q09472: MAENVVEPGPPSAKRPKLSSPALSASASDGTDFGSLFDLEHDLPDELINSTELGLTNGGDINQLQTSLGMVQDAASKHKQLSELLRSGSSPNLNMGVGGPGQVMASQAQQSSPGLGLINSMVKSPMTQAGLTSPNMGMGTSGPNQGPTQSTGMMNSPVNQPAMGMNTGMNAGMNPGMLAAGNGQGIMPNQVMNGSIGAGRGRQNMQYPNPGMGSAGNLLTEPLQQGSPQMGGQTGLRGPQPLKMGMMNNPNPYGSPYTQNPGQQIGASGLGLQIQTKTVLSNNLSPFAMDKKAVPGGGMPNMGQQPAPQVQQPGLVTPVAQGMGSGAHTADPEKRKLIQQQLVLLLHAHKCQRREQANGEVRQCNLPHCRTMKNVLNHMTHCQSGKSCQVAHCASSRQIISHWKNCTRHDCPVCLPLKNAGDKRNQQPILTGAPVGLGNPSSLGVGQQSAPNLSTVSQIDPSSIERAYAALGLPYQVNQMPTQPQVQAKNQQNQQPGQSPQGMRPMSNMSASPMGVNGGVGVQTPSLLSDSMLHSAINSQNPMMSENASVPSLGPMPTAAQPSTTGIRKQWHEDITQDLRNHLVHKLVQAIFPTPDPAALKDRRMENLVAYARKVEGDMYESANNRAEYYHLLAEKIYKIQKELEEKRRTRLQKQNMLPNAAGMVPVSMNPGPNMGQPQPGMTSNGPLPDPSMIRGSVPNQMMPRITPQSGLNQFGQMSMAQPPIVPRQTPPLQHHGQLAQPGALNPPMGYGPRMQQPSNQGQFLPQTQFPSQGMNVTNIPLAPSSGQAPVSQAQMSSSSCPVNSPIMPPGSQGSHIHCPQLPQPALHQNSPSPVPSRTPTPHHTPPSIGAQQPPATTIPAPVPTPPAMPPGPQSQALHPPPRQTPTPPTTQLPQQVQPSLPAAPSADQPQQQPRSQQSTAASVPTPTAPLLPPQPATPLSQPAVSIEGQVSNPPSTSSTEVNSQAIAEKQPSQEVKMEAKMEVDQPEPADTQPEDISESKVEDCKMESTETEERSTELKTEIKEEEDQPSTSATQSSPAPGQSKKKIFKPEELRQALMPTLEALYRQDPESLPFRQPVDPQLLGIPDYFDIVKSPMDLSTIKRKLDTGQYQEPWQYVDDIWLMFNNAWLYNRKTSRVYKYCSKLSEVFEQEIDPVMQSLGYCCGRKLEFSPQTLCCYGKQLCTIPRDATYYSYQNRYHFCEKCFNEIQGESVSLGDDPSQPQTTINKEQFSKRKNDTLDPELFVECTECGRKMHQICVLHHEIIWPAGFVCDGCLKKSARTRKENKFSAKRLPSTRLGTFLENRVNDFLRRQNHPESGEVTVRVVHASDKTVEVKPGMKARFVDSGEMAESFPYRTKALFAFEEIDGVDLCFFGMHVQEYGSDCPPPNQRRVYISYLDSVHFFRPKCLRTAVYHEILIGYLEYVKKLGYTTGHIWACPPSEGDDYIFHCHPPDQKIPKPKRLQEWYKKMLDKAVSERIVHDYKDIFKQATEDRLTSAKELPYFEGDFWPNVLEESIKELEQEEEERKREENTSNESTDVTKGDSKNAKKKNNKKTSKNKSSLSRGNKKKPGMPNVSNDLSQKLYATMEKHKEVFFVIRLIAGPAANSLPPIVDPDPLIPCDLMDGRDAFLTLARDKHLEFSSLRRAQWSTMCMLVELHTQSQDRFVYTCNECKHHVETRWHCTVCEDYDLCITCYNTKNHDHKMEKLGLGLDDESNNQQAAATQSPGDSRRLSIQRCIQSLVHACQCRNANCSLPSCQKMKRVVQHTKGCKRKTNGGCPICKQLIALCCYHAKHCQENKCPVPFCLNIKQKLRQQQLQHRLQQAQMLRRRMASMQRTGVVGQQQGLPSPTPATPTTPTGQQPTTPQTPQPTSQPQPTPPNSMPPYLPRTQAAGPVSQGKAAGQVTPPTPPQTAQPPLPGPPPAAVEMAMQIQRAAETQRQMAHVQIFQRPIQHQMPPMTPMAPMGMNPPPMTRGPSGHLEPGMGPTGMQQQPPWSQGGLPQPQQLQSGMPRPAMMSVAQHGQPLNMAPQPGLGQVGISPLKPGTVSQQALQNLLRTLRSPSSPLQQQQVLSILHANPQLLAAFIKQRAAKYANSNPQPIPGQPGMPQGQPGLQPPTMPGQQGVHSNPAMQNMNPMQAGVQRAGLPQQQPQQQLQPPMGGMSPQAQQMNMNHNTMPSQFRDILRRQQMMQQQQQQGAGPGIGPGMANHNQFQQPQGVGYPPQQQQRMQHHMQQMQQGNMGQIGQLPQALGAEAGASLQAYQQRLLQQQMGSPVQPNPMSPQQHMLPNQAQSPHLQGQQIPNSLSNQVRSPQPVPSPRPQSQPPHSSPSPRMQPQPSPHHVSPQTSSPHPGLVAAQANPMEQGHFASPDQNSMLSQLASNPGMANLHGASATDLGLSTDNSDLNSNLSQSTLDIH
UniProt O09106: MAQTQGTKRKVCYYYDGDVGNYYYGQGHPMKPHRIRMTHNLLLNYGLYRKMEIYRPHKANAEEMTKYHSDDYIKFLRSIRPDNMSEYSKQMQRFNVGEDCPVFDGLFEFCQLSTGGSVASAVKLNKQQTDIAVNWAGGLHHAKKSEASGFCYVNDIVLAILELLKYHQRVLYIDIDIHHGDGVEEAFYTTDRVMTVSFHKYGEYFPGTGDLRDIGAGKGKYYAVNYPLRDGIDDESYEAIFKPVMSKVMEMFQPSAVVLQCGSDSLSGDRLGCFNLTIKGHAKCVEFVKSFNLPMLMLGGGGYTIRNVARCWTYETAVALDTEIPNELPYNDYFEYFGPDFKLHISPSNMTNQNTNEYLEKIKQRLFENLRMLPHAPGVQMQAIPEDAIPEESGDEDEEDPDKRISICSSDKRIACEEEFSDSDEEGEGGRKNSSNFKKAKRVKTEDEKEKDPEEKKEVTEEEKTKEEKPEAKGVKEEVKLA
UniProt P70288: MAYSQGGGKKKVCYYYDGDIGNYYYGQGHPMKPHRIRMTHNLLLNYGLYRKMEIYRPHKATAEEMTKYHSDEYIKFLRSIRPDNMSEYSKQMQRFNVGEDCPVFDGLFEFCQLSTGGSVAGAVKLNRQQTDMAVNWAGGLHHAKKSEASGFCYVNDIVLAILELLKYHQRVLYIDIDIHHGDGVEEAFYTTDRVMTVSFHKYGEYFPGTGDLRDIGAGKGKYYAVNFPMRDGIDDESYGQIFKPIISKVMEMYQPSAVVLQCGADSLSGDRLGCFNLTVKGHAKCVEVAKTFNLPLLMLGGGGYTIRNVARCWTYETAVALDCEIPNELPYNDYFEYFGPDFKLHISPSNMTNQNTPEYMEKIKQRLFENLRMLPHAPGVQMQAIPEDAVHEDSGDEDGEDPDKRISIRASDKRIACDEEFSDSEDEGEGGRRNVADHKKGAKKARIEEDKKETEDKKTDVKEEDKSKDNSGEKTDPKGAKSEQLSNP

No constants are given. Whether binding was seen depends on the method and setting. In cells and extracts the contact can be indirect. Some results given as binding are weak or reduced against the parent protein; the word gives no strength.

For test [1], the target named is STAT3, human HCC tissue (human (endogenous in HCC tissue)) (UniProt P40763). Description: co-IP; endogenous proteins of human HDAC3-positive or HDAC3-negative HCC tissues.
For test [2], the target named is acetylated STAT3 (ac-STAT3), mouse liver (mouse (endogenous in liver)) (UniProt P42227). Description: co-IP; endogenous proteins, nucleus of mouse liver following partial hepatectomy.

As to “p300, human HCC tissue (from UniProt Q09472 1-2414) (enzyme)”, the binding entry in test [1] is “binds”.
Regarding “HDAC1, mouse liver (from UniProt O09106 1-482) (enzyme)”, in test [2], the binding entry is on record as “binds”.
As for “HDAC2, mouse liver (from UniProt P70288 1-488) (enzyme)”, in test [2], the binding result was “binds”.
